Measured values from the supplement of paper PMC10849652.
This is one part of the list. Residues, ends and D or L forms follow the SMILES beside them. *: point of attachment. Cbz = O=C(OCc1ccccc1)*

The chains behind the UniProt entries cited, without tags or fusion partners. Where a name states a change or a piece, a line headed by the entry shows the natural chain unless it says otherwise.
UniProt P48553, whole entry, looked up: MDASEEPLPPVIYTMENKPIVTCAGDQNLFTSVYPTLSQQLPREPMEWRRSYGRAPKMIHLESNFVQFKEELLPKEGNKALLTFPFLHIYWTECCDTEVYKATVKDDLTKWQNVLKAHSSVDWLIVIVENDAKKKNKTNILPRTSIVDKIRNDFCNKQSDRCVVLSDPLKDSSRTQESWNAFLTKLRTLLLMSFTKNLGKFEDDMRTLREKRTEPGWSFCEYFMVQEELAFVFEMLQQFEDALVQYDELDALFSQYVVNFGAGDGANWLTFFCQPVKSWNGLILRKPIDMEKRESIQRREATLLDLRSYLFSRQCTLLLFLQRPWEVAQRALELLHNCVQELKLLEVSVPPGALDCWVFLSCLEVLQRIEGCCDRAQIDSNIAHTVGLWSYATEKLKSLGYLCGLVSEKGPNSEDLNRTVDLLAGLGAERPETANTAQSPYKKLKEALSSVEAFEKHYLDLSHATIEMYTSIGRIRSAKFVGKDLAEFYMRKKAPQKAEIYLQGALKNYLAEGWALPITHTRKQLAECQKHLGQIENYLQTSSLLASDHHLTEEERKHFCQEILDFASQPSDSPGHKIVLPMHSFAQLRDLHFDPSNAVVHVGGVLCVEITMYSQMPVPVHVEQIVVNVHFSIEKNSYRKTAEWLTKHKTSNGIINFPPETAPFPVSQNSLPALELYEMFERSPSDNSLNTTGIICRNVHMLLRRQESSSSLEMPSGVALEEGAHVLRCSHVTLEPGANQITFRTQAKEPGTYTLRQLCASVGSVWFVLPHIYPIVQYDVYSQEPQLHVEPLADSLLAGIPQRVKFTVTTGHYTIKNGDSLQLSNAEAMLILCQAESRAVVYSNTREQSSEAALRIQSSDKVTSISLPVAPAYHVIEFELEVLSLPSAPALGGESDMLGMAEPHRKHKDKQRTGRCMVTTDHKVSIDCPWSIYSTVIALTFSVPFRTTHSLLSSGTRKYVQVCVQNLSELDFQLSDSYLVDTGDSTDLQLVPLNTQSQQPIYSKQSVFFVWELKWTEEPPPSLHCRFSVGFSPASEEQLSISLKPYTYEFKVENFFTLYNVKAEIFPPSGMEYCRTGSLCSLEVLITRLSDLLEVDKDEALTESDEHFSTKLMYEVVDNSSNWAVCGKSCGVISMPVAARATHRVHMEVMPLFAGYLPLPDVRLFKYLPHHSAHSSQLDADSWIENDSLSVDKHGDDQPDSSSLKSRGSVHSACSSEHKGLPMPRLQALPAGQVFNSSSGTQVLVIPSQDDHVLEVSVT
UniProt Q8WWH5: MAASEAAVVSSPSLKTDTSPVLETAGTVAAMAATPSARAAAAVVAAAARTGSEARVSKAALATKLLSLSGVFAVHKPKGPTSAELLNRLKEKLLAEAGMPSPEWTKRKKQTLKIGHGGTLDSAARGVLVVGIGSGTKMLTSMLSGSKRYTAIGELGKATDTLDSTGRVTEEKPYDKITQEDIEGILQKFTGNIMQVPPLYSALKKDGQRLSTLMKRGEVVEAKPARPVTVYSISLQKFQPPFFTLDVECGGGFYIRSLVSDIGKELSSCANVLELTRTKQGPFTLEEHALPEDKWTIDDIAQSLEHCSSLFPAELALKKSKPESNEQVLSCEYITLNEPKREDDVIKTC
UniProt O75674: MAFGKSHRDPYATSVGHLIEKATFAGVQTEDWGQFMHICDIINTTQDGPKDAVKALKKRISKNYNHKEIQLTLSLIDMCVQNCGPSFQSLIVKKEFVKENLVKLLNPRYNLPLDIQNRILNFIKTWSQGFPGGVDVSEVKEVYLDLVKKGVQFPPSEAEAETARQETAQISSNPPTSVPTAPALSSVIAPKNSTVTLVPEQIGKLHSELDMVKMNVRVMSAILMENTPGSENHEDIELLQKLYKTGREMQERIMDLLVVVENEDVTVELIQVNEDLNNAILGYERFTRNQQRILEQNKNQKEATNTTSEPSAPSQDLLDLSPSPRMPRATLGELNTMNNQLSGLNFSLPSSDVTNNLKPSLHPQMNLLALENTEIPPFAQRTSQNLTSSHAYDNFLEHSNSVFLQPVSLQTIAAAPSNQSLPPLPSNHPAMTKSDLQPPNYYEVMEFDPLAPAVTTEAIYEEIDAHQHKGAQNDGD
UniProt P49815: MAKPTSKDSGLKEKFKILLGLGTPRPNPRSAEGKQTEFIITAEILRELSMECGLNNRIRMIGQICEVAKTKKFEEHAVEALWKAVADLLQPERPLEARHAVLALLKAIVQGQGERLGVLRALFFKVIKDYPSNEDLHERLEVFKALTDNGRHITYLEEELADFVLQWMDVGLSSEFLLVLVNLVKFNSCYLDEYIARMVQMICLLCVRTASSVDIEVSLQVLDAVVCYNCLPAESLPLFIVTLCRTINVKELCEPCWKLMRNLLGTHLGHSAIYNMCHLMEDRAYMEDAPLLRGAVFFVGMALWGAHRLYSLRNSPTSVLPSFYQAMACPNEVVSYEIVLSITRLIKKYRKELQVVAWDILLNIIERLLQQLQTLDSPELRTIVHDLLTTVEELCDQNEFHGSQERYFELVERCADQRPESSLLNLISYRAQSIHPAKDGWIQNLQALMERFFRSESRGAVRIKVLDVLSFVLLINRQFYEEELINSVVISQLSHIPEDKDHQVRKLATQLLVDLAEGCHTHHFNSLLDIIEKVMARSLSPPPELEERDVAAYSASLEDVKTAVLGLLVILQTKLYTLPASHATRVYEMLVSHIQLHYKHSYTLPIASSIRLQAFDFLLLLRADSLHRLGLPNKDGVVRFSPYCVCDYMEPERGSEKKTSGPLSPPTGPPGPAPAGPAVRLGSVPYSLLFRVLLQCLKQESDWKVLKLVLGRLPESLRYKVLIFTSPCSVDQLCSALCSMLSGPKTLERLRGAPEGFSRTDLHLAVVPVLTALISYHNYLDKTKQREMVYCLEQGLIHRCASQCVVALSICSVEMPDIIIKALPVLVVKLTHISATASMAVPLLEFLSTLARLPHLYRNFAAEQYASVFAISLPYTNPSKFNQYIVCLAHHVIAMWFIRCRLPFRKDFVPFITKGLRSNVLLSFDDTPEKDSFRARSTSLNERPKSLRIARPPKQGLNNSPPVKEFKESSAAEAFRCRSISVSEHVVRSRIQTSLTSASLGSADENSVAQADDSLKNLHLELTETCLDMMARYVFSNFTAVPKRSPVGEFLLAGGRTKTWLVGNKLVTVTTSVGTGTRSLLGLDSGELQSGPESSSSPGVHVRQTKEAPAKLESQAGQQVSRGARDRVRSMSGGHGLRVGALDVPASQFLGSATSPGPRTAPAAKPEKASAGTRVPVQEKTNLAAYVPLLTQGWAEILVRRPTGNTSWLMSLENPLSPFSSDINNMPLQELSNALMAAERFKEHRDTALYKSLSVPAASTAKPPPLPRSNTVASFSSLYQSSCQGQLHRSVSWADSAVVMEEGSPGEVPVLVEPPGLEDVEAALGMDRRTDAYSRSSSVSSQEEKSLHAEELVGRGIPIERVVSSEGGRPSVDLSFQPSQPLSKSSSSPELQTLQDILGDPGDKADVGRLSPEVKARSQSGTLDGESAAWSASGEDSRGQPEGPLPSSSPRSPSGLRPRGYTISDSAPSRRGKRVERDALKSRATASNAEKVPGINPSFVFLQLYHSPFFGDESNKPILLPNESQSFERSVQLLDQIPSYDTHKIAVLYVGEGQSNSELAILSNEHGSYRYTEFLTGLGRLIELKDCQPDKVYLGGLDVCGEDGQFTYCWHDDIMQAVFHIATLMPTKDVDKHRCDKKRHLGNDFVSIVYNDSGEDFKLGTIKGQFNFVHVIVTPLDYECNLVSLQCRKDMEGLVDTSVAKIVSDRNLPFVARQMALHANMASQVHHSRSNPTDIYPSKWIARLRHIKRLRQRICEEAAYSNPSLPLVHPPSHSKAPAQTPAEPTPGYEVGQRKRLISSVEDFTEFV
UniProt Q9BSV6: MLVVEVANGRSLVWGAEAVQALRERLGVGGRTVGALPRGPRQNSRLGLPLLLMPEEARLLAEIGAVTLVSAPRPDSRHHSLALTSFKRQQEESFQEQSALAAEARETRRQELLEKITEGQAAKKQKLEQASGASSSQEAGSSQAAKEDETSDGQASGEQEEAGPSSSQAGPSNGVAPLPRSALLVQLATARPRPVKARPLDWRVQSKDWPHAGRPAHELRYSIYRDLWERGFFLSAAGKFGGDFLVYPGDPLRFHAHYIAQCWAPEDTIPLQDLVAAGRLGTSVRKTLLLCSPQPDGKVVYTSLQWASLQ
UniProt O96008: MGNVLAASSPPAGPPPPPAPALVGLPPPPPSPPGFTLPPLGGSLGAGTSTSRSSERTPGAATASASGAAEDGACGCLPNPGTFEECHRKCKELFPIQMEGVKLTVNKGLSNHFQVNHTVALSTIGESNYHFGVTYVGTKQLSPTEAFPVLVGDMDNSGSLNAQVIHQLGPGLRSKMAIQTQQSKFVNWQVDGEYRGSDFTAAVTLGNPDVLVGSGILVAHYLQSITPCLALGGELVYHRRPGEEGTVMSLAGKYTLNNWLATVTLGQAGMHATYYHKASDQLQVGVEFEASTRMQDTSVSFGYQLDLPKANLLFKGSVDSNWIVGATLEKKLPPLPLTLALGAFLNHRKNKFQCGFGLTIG
UniProt Q96QT4: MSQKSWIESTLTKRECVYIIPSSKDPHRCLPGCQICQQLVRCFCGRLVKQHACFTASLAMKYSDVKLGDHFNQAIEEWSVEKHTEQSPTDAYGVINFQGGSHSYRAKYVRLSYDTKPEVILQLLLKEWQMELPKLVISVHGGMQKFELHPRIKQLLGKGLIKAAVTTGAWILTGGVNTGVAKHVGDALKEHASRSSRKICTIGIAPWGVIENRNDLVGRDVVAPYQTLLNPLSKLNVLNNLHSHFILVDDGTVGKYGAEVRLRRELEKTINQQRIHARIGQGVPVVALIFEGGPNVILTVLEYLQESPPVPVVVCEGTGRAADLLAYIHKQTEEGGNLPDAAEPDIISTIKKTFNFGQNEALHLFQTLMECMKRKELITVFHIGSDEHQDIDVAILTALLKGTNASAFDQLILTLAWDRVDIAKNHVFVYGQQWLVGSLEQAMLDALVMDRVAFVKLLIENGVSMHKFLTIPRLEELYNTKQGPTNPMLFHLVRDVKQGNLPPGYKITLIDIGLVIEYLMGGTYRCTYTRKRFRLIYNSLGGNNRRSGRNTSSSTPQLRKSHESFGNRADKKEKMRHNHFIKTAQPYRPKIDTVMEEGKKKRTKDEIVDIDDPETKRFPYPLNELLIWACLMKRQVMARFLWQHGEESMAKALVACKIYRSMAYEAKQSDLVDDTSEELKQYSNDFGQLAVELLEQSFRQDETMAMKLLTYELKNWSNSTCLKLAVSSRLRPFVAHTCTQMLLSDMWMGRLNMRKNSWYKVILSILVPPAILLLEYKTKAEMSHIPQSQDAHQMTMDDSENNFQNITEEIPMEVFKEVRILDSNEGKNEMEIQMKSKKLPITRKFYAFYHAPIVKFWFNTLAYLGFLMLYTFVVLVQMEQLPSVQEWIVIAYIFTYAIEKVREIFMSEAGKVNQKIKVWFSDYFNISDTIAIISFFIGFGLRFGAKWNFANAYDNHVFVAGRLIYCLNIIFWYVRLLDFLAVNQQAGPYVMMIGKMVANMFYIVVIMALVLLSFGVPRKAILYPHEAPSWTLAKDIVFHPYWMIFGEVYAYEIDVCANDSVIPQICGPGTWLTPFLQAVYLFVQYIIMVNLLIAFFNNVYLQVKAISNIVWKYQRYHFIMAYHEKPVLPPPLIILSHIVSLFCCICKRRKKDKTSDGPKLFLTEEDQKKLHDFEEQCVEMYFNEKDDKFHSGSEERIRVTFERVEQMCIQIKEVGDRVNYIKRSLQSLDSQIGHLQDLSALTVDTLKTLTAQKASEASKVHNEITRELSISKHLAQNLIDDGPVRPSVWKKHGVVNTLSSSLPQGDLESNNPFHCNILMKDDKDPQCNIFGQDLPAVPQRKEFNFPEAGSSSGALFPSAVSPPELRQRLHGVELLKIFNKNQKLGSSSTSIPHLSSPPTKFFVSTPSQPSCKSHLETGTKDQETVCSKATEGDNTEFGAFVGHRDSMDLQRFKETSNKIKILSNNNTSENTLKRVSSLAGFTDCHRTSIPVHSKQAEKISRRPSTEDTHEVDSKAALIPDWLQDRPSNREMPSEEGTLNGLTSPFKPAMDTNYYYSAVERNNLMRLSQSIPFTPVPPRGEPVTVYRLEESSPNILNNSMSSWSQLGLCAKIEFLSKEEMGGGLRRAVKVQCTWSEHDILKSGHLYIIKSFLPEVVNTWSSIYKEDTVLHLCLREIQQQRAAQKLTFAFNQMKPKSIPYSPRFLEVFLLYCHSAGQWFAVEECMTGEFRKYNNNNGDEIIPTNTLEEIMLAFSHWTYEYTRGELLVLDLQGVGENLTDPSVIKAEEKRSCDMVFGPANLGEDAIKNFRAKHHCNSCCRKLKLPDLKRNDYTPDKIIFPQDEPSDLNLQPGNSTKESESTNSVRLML

What was measured:
Experiment in all cases: log2 fold change, soluble protein after heating vs DMSO (PISA); higher = thermal stabilisation; K562 cells, 10 uM, 30 min; active = over 0.2 and 3.5 SD of the protein, either way, in both replicates (recomputed)
[1] = compound: C#Cc1cccc(Nc2ncnc3cc(OCCOC)c(OCCOC)cc23)c1 [erlotinib]
In short: (§1)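 K562 cells at 2×10^6 cells/mL were treated for 30 min with 10 μM compound, and aliquots were heated for 3 min over 48°C-58°C before pooling. Extraction used PBS with 0.5% NP-40 at 4°C, and soluble protein was the supernatant after 21,000xg for 90 min, measured by TMTpro 16plex LC-MS/MS with channel sums equalised. Thermal stability values, relative to control samples and from duplicates, are log2 fold changes.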

[2] = compound: C/C(=N\NC(=O)C1=CC(=CC=C1)S(=O)(=O)N2CCOCC2)/C3=C(C=CC(=C3)Cl)O
In short: as §1

[3] = compound: C1=CC(=C(C=C1Cl)C2=NC3=NC=CN=C3C(=N2)NC4=CC=NC=C4)F
In short: as §1

[4] = compound: C1=CC(=CC=C1C2=NC3=C(N2)C=C(C=C3)C(=O)N)OC4=CC=C(C=C4)Cl
In short: as §1

[5] = compound: C1=CC2=C(C=CC(=C2)/C=C\3/C(=O)NC(=NCC4=CC=CS4)S3)N=C1
In short: as §1

[6] = compound: C1=CC2=NC=CN=C2C=C1/C=C/3\C(=O)NC(=O)S3
In short: as §1

[7] = compound: C1=CC=C(C=C1)C2=NC(=C(N2)C3=CC=NC=C3)C4=CC(=C(C=C4)Cl)O
In short: as §1

[8] = compound: C1=CC=C2C(=C1)C3=NNC4=CC=CC(=C43)C2=O
In short: as §1

[9] = compound: C1CCN(C1)C(=O)NC2=CC=CC(=C2)NC3=NC=C(C(=N3)NCCC4=CN=CN4)Br
In short: as §1

[10] = compound: C1CN(CCC1(CC2=CC=C(C=C2)Cl)N)C3=NC=NC4=C3C=CN4
In short: as §1

[11] = compound: C1COCCN1CCN2C3=CC=CC=C3N=C2NC(=O)C4=CC(=CC=C4)[N+](=O)[O-] [IRAK-1-4 Inhibitor I]
In short: as §1

[12] = compound: C=CC(=O)N1CCC[C@@H](n2nc(-c3ccc(Oc4ccccc4)cc3)c3c(N)ncnc32)C1 [ibrutinib]
In short: as §1

[13] = compound: CC(=O)c1cnc2ccc(-c3cc(Cl)c(O)c(Cl)c3)nc2c1N[C@H]1CC[C@H](CN(C)C)CC1
In short: as §1

[14] = compound: CC(C)(C)Cn1c(N)nc2ccc(-c3[nH]c(C(C)(C)C)nc3-c3ccc(F)cc3)nc21 [ralimetinib]
In short: as §1

[15] = compound: CC(C)(O)CC(=O)NCCn1ccc2ncnc(Nc3ccc(Oc4cccc(C(F)(F)F)c4)c(Cl)c3)c21
In short: as §1

[16] = compound: CC(C)C1=C2N=C(C=C(N2N=C1)NCC3=CC=CC=C3)NCCCCCCN
In short: as §1

[17] = compound: CC(C)C[C@@H](C=O)NC(=O)[C@H](CC(C)C)NC(=O)[C@H](CC(C)C)NC(=O)OCc1ccccc1
In short: as §1

[18] = compound: CC(C)N(C[C@H]1O[C@@H](n2cnc3c(N)ncnc32)[C@H](O)[C@@H]1O)[C@H]1C[C@@H](CCc2nc3cc(C(C)(C)C)ccc3[nH]2)C1 [pinometostat]
In short: as §1

[19] = compound: CC1=C(C(CC(=O)N1)C2=CC=C(C=C2)C(F)(F)F)C(=O)NC3=C(C=C4C(=C3)C=NN4)F
In short: as §1

[20] = compound: CC1=C(C2=C(C=C1)C(=O)C3=CC=CC=C3N2CCCN)C
In short: as §1

Target | log2 fold change [1] | log2 fold change [2] | log2 fold change [3] | log2 fold change [4] | log2 fold change [5] | log2 fold change [6] | log2 fold change [7] | log2 fold change [8] | log2 fold change [9] | log2 fold change [10] | log2 fold change [11] | log2 fold change [12] | log2 fold change [13] | log2 fold change [14] | log2 fold change [15] | log2 fold change [16] | log2 fold change [17] | log2 fold change [18] | log2 fold change [19] | log2 fold change [20]
TRAF2 (UniProt Q12933) | inactive: -0.015 | inactive: 0.047 | inactive: 0.068 | inactive: 0.005 | inactive: 0.013 | inactive: 0.035 | inactive: 0.031 | inactive: 0.004 | inactive: -0.016 | inactive: 0.018 | inactive: 0.014 | inactive: -0.008 | inactive: -0.011 | inactive: 0.002 | inactive: -0.009 | inactive: 0.063 | inactive: -0.016 | inactive: -0.04 | inactive: -0.003 | inactive: 0.02
TRMT10A (UniProt Q8TBZ6) | inactive: -0.01 | inactive: 0.044 | inactive: 0.004 | inactive: 0.031 | inactive: 0.037 | inactive: 0.02 | inactive: -0.015 | active: 0.271 | inactive: 0.038 | inactive: -0.045 | inactive: 0.056 | inactive: -0.009 | inactive: -0.065 | inactive: -0.006 | inactive: -0.107 | inactive: -0.075 | inactive: -0.01 | inactive: 0.042 |  | inactive: 0.066
TRAPPC10 (UniProt P48553) | inactive: -0.079 | inactive: 0.121 | inactive: -0.06 | inactive: -0.028 | inactive: 0.08 | inactive: 0.05 | inactive: -0.017 | inactive: -0.008 | inactive: 0.05 | inactive: -0.024 | inactive: 0.002 | inactive: 0.014 | inactive: -0.158 | inactive: 0.053 | inactive: 0.044 | inactive: -0.034 | inactive: 0.023 | inactive: 0.087 | inactive: 0.028 | inactive: -0.029
TRUB1 (UniProt Q8WWH5) | inactive: 0.019 | inactive: -0.014 | inactive: 0.016 | inactive: 0.055 | inactive: 0.17 | inactive: 0.043 | inactive: 0.007 | inactive: 0.027 | inactive: -0.049 | inactive: 0.024 | inactive: -0.02 | inactive: -0.005 | inactive: -0.037 | inactive: -0.034 | inactive: 0.01 | inactive: -0.047 | inactive: 0.015 | inactive: -0.037 | inactive: 0.013 | inactive: -0.013
TNFRSF1B (UniProt P20333) | inactive: -0.08 | inactive: 0.027 | inactive: 0.021 | inactive: 0.035 | inactive: -0.005 | inactive: 0.011 | inactive: 0.053 | inactive: -0.048 | inactive: 0.02 | inactive: 0.004 | inactive: 0.024 | inactive: -0.012 | inactive: 0.072 | inactive: -0.028 | inactive: -0.029 | inactive: 0.193 | inactive: 0.08 | inactive: 0.038 | inactive: -0.013 | inactive: -0.089
TOM1L1 (UniProt O75674) | inactive: 0.019 | inactive: -0.009 | inactive: -0.003 | inactive: 0.044 | inactive: -0.038 | inactive: 0.037 | inactive: -0.023 | inactive: -0.026 | inactive: 0.006 | inactive: 0.076 | inactive: 0.006 | inactive: -0.001 | inactive: -0.014 | inactive: -0.047 | inactive: -0.013 | inactive: 0.019 | inactive: 0.028 | inactive: -0.023 |  | inactive: -0.019
TRMT1L (UniProt Q7Z2T5) | inactive: -0.146 | inactive: -0.255 | inactive: -0.628 | inactive: 0.018 | inactive: -0.128 | inactive: 0.005 | inactive: -0.01 | inactive: -0.028 | inactive: 0.105 | inactive: -0.104 | inactive: -0.116 | inactive: 0.009 | inactive: 0.229 | inactive: 0.202 | inactive: 0 | inactive: 0.057 | inactive: 0.175 | inactive: 0.403 | inactive: -0.02 | inactive: -0.269
TSC2 (UniProt P49815) | inactive: 0.276 | inactive: -0.047 | inactive: -0.104 | inactive: -0.297 | inactive: -0.025 | inactive: -0.135 | inactive: 0.06 | inactive: 0.063 | inactive: -0.001 | inactive: 0.199 | inactive: -0.045 | inactive: 0.028 | inactive: 0.05 | inactive: 0.091 | inactive: -0.001 | inactive: 0.103 | inactive: 0.056 | inactive: 0.085 |  | inactive: 0.105
TRMT1 (UniProt Q9NXH9) | inactive: 0.014 | inactive: 0.018 | inactive: 0.022 | inactive: 0.025 | inactive: -0.016 | inactive: 0.029 | inactive: -0.041 | inactive: 0 | inactive: -0.005 | inactive: 0.037 | inactive: 0.001 | inactive: -0.007 | inactive: 0.014 | inactive: -0.082 | inactive: 0.006 | inactive: 0.065 | inactive: -0.017 | inactive: -0.041 | inactive: 0.009 | inactive: 0.043
TSEN34 (UniProt Q9BSV6) | inactive: 0.038 | inactive: 0.035 | inactive: 0.17 | inactive: 0.034 | inactive: 0.106 | inactive: -0.032 | inactive: 0.007 | inactive: -0.028 | inactive: -0.137 | inactive: 0 | inactive: 0.047 | inactive: 0.01 | inactive: -0.063 | inactive: 0.022 | inactive: -0.041 | inactive: 0.035 | inactive: 0.013 | inactive: -0.029 | inactive: 0.049 | inactive: 0.072
TRIM56 (UniProt Q9BRZ2) | inactive: -0.062 | inactive: -0.132 | inactive: -0.263 | inactive: 0.077 | inactive: -0.028 | inactive: -0.054 | inactive: -0.017 | inactive: -0.063 | inactive: 0.013 | inactive: -0.183 | inactive: -0.178 | inactive: 0.186 | inactive: -0.013 | inactive: 0.096 | inactive: 0.079 | inactive: 0.004 | inactive: 0.166 | inactive: 0.255 | inactive: -0.002 | inactive: -0.203
TOMM40 (UniProt O96008) | inactive: -0.006 | inactive: -0.01 | inactive: 0.053 | inactive: 0.018 | inactive: -0.068 | inactive: 0.045 | inactive: -0.017 | inactive: 0.022 | inactive: 0.004 | inactive: 0.039 | inactive: -0.021 | inactive: -0.004 | inactive: 0.002 | inactive: -0.022 | inactive: -0.028 | inactive: 0.037 | inactive: -0.033 | inactive: -0.067 | inactive: 0.006 | inactive: 0.019
TRMT61B (UniProt Q9BVS5) | inactive: -0.015 | inactive: 0.018 | inactive: -0.128 | inactive: 0.036 | inactive: -0.065 | inactive: -0.007 | inactive: -0.022 | inactive: -0.026 | inactive: -0.007 | inactive: -0.035 | inactive: -0.071 | inactive: 0.01 | inactive: 0.091 | inactive: 0.078 | inactive: 0.025 | inactive: 0.025 | inactive: 0.057 | inactive: 0.029 | inactive: 0.004 | inactive: 0.134
TNIK isoform 6 (UniProt Q9UKE5) | inactive: 0.004 | inactive: -0.014 | inactive: -0.004 | inactive: -0.014 | inactive: 0.057 | inactive: 0.002 | inactive: -0.043 | inactive: 0.004 | inactive: 0.004 | inactive: -0.029 | inactive: -0.011 | inactive: 0.03 | inactive: -0.018 | inactive: -0.033 | inactive: -0.01 | inactive: 0.017 | inactive: 0.041 | inactive: 0.044 | inactive: 0.011 | inactive: 0.081
TRPM7 (UniProt Q96QT4) | inactive: 0.011 | inactive: -0.017 | inactive: -0.164 | inactive: 0.047 | inactive: 0.098 | inactive: 0.051 | inactive: 0.063 | inactive: -0.013 | inactive: -0.115 | inactive: -0.032 | inactive: 0 | inactive: 0.09 | inactive: -0.083 | inactive: 0.219 | inactive: 0.03 | inactive: -0.131 | inactive: -0.013 | inactive: 0.175 |  | inactive: 0.336
TRIM33 (UniProt Q9UPN9) | inactive: 0.114 | inactive: 0.133 | inactive: -0.001 | inactive: -0.083 | inactive: 0.086 | inactive: 0.023 | inactive: 0.013 | inactive: 0.05 | inactive: -0.015 | inactive: -0.053 | inactive: -0.034 | inactive: 0 | inactive: -0.188 | inactive: 0.084 | inactive: -0.16 | inactive: -0.132 | inactive: 0.068 | inactive: 0.056 | inactive: 0.017 | inactive: 0.034

Full records, quoted from the list. Order of values: log2 fold change [1] | log2 fold change [2] | log2 fold change [3] | log2 fold change [4] | log2 fold change [5] | log2 fold change [6] | log2 fold change [7] | log2 fold change [8] | log2 fold change [9] | log2 fold change [10] | log2 fold change [11] | log2 fold change [12] | log2 fold change [13] | log2 fold change [14] | log2 fold change [15] | log2 fold change [16] | log2 fold change [17] | log2 fold change [18] | log2 fold change [19] | log2 fold change [20]
TNFRSF1B (UniProt P20333) as listed: inactive: -0.08 | inactive: 0.027 | inactive: 0.021 | inactive: 0.035 | inactive: -0.005 | inactive: 0.011 | inactive: 0.053 | inactive: -0.048 | inactive: 0.02 | inactive: 0.004 | inactive: 0.024 | inactive: -0.012 | inactive: 0.072 | inactive: -0.028 | inactive: -0.029 | inactive: 0.193 | inactive: 0.08 | inactive: 0.038 | inactive: -0.013 | inactive: -0.089
TRAF2 (UniProt Q12933) as listed: inactive: -0.015 | inactive: 0.047 | inactive: 0.068 | inactive: 0.005 | inactive: 0.013 | inactive: 0.035 | inactive: 0.031 | inactive: 0.004 | inactive: -0.016 | inactive: 0.018 | inactive: 0.014 | inactive: -0.008 | inactive: -0.011 | inactive: 0.002 | inactive: -0.009 | inactive: 0.063 | inactive: -0.016 | inactive: -0.04 | inactive: -0.003 | inactive: 0.02
